Results as given in patent US5284829A, “Synthetic tetrapeptides for the prevention of schistosome parasite infection” (priority 1991, dated 1994).
At least one peptide structure holds a part that was inferred or is arguable (an end, a ring closure or a residue). Where a SMILES comes first, the peptide text is derived from it. The star is where a group is joined. MeOSuc = COC(=O)CCC(=O)*; CH2Cl = ClC*

System: cercariae of Schistosoma mansoni (Puerto Rican strain)
Format: cell-based
Conditions: 50 μM inhibitor
Description: A modification of the assay developed by Clegg and Smithers (Clegg & Smithers, 1972. Int. J. Parasitol. 2, 79-98.) was used. Two Plexiglass chambers were manufactured which could be screwed together to hold a 25×25 mm section of skin at the interface of the two chambers. Human skin was obtained from autopsy (6-12 hours following death) or from amputation specimens received at the Department of Surgical Pathology, UCSF. The chamber below the skin was filled with tissue culture medium (DME H16) prewarmed to 37° C. After the skin was clamped, the upper chamber was filled with water containing 9000 cercariae of Schistosoma mansoni (Puerto Rican strain). Cercariae will follow a thermal gradient, and they are stimulated by the lipid on the surface of skin to invade (Stirewalt, 1974. Adv. Parasitol. 12, 115-180). After one hour exposure to cercariae the skin was removed, fixed in 10% phosphate buffered formalin for 24 h, and sectioned at 2 mm intervals. Following dehydration and routine paraffin embedding, 5μ sections were cut by microtome and stained with hemotoxylin and eosin. The number of cercariae which had invaded epidermis or dermis was counted in each section. Percent inhibition of invasion was calculated as [formula] All assays were done in triplicate and standard deviation of the mean calculated. […]

For `COC(=O)CCC(=O)N[C@@H](C)C(=O)N[C@@H](C)C(=O)N1CCC[C@H]1C(=O)N[C@@H](CC(C)C)C(=O)CCl` [MeO-Suc-Ala-Ala-Pro-Leu-CMK] (MeOSuc-AAPL-CH2Cl), which “cercarial invasion of human skin (in words)” value is on record?
Its value is “not invading”.
